# Assay results reported in PMC3650583, “Dissection of Pilus Tip Assembly by the FimD Usher Monomer” (Journal of Molecular Biology, 2013).
# By UniProt entry, the sequences of proteins in these tests, tags left out. Residues count along the entry.
# UniProt P08191, residues 22-300: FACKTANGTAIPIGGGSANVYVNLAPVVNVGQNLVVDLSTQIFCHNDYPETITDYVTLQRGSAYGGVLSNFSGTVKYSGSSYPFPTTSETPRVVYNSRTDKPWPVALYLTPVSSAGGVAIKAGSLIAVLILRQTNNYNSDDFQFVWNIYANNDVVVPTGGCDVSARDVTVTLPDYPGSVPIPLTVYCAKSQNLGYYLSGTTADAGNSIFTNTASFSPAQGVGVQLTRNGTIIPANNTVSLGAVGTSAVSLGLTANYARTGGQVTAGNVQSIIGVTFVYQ
# Results are given in words; binding and its absence hold for the method and conditions named. Some binding calls cover weakened binding; strength is not graded here.
# Molecular target: FimH (Escherichia coli (uropathogenic)) (UniProt P08191)
# Experiment: SEC; FimD:FimC:FimH mixed with chaperone:subunit complex at a 1:1.5 ratio, then gel filtration (Superose-12) in 50 mM Tris pH 8.0, 150 mM NaCl, 1 mM EDTA, 0.05% DDM; both purified
binder,measurement,value
"FimG (natural protein, also called unlabelled FimG; FimC:FimG (as chaperone complex)) ADVTITVNGKVVAKPCTVSTTNATVDLGDLYSFSLMSAGAASAWHDVALELTNCPVGTSRVTASFSGAADSTGYYKNQGTAQNIQLELQDDSGNTLNTGATKTVQVDDSSQSAHFPLQVRALTVNGGATQGTIQAVISITYTYS",binding,binds
